Laboratory results reported in PMC6739421.
No constants are given. Whether binding was seen depends on the method and setting. A result given as binding can be weak or reduced; the word gives no strength.

Molecular target: T1, phage λ terminase small subunit (TerS, gpNu1), wild type (phage λ) (UniProt P03707)
T1 sequence: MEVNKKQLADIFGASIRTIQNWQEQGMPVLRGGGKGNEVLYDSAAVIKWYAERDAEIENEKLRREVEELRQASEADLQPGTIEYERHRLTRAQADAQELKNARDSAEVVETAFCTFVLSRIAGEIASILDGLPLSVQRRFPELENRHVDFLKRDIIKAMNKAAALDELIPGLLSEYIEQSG
Experiment: two-hybrid; bacterial adenylate cyclase two-hybrid (BACTH) in E. coli BTH101 with plasmids pKT25 and pUT18C; colour on X-gal/IPTG plates at 30°C and β-galactosidase in Miller units after overnight induction with 0.5 mM IPTG

Question: Which binding does the source give for RppA L51D (Escherichia coli CFT073) here?
Answer: Its binding is “no binding”.

Question: How did the binding turn out when “Rpp protein from Pluralibacter gergoviae” was run?
Answer: The binding was “binds”.

Question: Which binding does the source give for “RppA (redirecting phage packaging protein A, c1503-encoded protein of the PICI EcCICFT073) (Escherichia coli CFT073)” here?
Answer: The binding was “binds”.
